Assay results: patent US20220259318A1

B1: 5F11-IgG (antibody, V domains shown)
VH: EVQLVESGGGLVQPGRSLKLSCAASGFSFSNYGMAWVRQAATKGLEWVASISTGGGNTYYRDSVKGRFIVSRDNAKNTQYLQMDSLRSEDTATYYCTRHDRGGLYWGQGVMVTVSS
VL: DIVMTQAPLSVSVTPGESASISCRSSKSLLHSNGITYVYWYFQKPGKSPQVLIYRMSNLASGVPDRFSGSGSETDFTLKISRVEAEDVGIYHCGQLLENPYTFGAGTELELK
B2: 07A04 IgG (antibody, V domains shown)
VH: QVTLKESGPGILQPSHTLSLTCSFSGFSLSTYGMGVNWIRQPSGKGLEWLASIWWNGNTYNNPSLKSRLTVSKDTSNNQAFLKVTSVDTADTATYYCVHTRGIIRGRGLFFDYWGQGVMVTVSS
VL: DVQMTQSPYNLAASPGESVSINCKASKSISKYLAWYQQKPGKANKLLIYDGSTLQSGIPSRFSGSGSGTDFTLTIRSLEPEDFGLYYCQQHNEYPLTFGSGTKLEIKR
B3: 5E11-IgG (antibody, V domains shown)
VH: ELQLEQSGGGLVQPGGSLTLSCAASGFTFSKYAMAWVRQAPTKGLEWVASISTGGVNTYYRDSVKARFTISRDNAKNTQYLQMDSLRSEDTATYYCATHTGDYFDYWGQGVMVTVSS
VL: DIVLTQSPALAVSPGQRATISCRASQSVSISGINLMNWYQQKPGQQPKLLIYHASILASGIPTRFSGSGSGTDFTLTIDPVQADDIATYYCQQTRESPLTFGSGTNLEIK
B4: 10B10 IgG (antibody, V domains shown)
VH: EVQLVESGGGLVQPGRSMKLSCAASGFTFTNFYMAWVRQAPTKALEWVASINTGGGYTYYRDSVKGRFTVSRDNTRSTLYLQMDSLRSEETATYYCARHLTYYGRYYYFDYWGQGVMVTVSS
VL: DIQLTQSPHSLSASLGETVSIECLASEGISNYLAWFHQKPGKSPQLLIYYASSLQDGVPSRFSGSGSGTQYSLKISNMQPEDEGVYYCQQGYKYPLTFGSGTKLEIK

target: cynomolgus GPRC5D (cynomolgus); assay: cell ELISA, CHO cells stably expressing cynomolgus GPRC5D

| binding | Binder |
| --- | --- |
| binds | B1 |
| binds | B2 |
| binds | B3 |
| binds | B4 |

No constants are given. Whether binding was seen depends on the method and setting. Binding calls can cover weak binding; strength is not graded here.
